# From US11649218B2, “C-Abl tyrosine kinase inhibitory compound embodiments and methods of making and using the same” (The USA, as represented by the Secretary, Dept. of Health …, priority 2018, dated 2023)
# At least one structure is not confirmed: it was looked up by name or label, or the drawing left a doubt.
# Tests used:
# hippocampal neurons [1] = test: Tau pathology induced by Aβf or H2O2 in culture neurons, immunofluorescence; format: cell-based; details: 1 μM; Aβf 5 μM or H2O2 25 μM, 6 hours
# [2] = system: P. falciparum strain NF54 asexual parasites; test: Asexual stage parasite growth inhibition, SYBR Green assay, 72 hours; format: cell-based
# Description: In this example, several of the c-Abl inhibitors were tested in the asexual […] strain of P. falciparum parasites for activity against malaria. […] The pre-diluted parasites were dispensed into a 1536-well plate (2.5 μL/well). […] The fluorescence of each well was measured at 520 nm following excitation at 490 nm using a ViewLux platereader (PerkinElmer).
# CML (K562) cell line = test: K562 cell proliferation inhibition by MTT assay, 48 hours; format: cell-based; details: K562, 48 hours
# Description: In this example, the ability of two compound embodiments described here, NCGC00373060 and NCGC00373056, to induce cell death in the CML (K562) cell line was evaluated. The leukemia cells were incubated with different concentrations of the compounds for 48 hours, and the cell proliferation inhibition was evaluated by the MTT assay. […] The leukemia cells were incubated with different concentrations of each compound embodiment for 48 hours, and the cell proliferation inhibition was evaluated by the MTT assay.
# neurons = test: Apoptotic nuclei induced by Aβ fibrils, Hoescht staining; format: cell-based
# Description: Additional results from another compound embodiment, NCGC00355553, are provided by FIG. 9C. Apoptotic nuclei were evaluated by Hoescht staining.
# hippocampal neurons [3] = test: Neuroprotection against Aβ fibrils, MTT assay; format: cell-based; details: 0.01, 0.1 and 1 μM; 5 μM Aβ peptide, 24 hours
# Description: Compound embodiments NCGC00373060 and NCGC00373056 also conferred neuroprotection against Aβ fibrils. […] Additional data from other compounds are provided by FIGS. 8C-8E. Neurons were incubated with 5 μM Aβ peptide in presence of the different compound concentrations for 24 hours and cell viability was evaluated by the MTT assay. Results from additional compounds are provided by FIG. 8C.
# APP/PSEN1 mice = test: APP/PSEN1 AD mice model, water maze, Barnes maze and brain histology
# [4] = system: ShSy5y neuroblastome cells; test: Cholesterol accumulation induced by U18666, Filipin or PFO-GST staining; format: cell-based; details: U18 0.5 μg/ml 24 hours; NCGC00373060 0.1 and 0.01 μM, Imatinib 10 uM
# Description: Cells were fixed and then stained with Filipin Staining. […] Cells were fixed and a PFO-GST immunofluorescence was performed.
# HeLa TFEB-GFP cells = test: TFEB translocation to the nucleus; format: cell-based; details: microscopy and subcellular fractionation
# 5XFAD mice = test: 5XFAD AD mice model, water maze and amyloid burden; format: in vivo; details: 9-month-old 5XFAD mice, 12.5 mg/kg daily for 30 days, IP
# Description: . First, the 5XFAD mice was used as the AD model. […] .
compound,measurement,setting,value
"O=C1Nc2cc(OC(F)(F)F)ccc2Oc2ccc(-c3ccnc(N4CCNCC4)c3)cc21 [NCGC00373060, 2-(2-(Piperazin-1-yl)pyridin-4-yl)-8-(trifluoromethoxy)dibenzo[b,j][1,4]oxazepin-11(10H)-one]",Tau pathology and loss of neurites,hippocampal neurons [1],decreased Tau pathology and the loss of neuritis
same,activity against malaria parasites,[2],low single digit uM range
same,induction of cell death,CML (K562) cell line,able to induce cell death
same,apoptotic nuclei induced by Aβ fibrils,neurons,prevention of the increases in apoptotic nuclei induced by Aβ fibrils
same,neuroprotection against Aβ toxicity,hippocampal neurons [3],protect neurons against the Aβ toxicity
same,amyloid Aβ plates and astrogliosis (GFAP) in the brain,APP/PSEN1 mice,decrease in the number of amyloid Aβ plates and astrogliosis
same,performance in the water maze,"APP/PSEN1 mice; 12.5 mg/kg daily for 60 days, IP",did not shown a better performance
same,cholesterol accumulation,[4],decreases cholesterol accumulation
same,TFEB translocation to the nucleus,HeLa TFEB-GFP cells,significant increase in TFEB translocation to the nucleus
same,"cognitive decline, water maze",5XFAD mice,protected 5XFAD mice against the cognitive decline
